The supplement of paper PMC12067093, “Discovery and optimisation of a covalent ligand for TRIM25 and its application to targeted protein ubiquitination” (Chemical Science, 2025)
The other results are listed elsewhere or left out.

Protein sequences, listed by entry. Tags and fused reporters are not part of them. Lines headed by an entry give the natural chain unless they say otherwise; changes in a name come on top.
UniProt P18669: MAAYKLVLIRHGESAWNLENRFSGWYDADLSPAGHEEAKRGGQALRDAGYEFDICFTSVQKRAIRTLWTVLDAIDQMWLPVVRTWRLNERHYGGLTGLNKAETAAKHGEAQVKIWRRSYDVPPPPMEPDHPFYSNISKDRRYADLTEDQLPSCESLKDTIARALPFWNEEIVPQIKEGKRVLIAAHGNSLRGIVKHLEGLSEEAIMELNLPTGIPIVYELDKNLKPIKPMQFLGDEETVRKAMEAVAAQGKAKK
UniProt Q9H814, whole entry: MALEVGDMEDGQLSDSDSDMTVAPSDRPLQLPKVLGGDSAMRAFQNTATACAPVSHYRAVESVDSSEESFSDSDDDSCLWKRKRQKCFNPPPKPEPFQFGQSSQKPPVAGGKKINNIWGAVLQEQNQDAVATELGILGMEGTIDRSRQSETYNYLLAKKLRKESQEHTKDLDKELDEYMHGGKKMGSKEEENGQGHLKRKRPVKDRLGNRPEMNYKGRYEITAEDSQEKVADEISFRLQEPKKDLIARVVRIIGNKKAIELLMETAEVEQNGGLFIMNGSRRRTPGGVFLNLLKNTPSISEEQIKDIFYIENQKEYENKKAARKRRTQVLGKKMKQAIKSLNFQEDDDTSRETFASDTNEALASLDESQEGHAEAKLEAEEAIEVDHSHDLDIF
UniProt Q96GD0: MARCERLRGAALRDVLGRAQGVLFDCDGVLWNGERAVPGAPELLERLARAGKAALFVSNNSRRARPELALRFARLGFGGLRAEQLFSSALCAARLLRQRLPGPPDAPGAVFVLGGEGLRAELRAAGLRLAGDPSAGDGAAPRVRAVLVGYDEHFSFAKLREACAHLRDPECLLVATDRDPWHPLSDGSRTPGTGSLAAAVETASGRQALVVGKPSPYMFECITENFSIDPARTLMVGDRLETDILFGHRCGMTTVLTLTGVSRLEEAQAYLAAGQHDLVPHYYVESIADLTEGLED
UniProt Q6ZS72: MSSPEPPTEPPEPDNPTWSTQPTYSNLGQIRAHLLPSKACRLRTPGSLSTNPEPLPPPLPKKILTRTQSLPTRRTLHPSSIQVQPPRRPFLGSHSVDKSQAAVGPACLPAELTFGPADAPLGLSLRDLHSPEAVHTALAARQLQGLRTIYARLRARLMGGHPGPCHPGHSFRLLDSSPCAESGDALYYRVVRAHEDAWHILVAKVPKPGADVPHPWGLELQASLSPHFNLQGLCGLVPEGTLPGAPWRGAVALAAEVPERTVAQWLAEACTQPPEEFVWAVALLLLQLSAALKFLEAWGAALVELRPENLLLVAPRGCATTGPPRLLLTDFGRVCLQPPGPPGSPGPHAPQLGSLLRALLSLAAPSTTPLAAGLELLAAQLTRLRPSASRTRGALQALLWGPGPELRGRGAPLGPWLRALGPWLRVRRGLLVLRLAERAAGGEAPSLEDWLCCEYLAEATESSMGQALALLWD
UniProt P42356, whole entry, looked up: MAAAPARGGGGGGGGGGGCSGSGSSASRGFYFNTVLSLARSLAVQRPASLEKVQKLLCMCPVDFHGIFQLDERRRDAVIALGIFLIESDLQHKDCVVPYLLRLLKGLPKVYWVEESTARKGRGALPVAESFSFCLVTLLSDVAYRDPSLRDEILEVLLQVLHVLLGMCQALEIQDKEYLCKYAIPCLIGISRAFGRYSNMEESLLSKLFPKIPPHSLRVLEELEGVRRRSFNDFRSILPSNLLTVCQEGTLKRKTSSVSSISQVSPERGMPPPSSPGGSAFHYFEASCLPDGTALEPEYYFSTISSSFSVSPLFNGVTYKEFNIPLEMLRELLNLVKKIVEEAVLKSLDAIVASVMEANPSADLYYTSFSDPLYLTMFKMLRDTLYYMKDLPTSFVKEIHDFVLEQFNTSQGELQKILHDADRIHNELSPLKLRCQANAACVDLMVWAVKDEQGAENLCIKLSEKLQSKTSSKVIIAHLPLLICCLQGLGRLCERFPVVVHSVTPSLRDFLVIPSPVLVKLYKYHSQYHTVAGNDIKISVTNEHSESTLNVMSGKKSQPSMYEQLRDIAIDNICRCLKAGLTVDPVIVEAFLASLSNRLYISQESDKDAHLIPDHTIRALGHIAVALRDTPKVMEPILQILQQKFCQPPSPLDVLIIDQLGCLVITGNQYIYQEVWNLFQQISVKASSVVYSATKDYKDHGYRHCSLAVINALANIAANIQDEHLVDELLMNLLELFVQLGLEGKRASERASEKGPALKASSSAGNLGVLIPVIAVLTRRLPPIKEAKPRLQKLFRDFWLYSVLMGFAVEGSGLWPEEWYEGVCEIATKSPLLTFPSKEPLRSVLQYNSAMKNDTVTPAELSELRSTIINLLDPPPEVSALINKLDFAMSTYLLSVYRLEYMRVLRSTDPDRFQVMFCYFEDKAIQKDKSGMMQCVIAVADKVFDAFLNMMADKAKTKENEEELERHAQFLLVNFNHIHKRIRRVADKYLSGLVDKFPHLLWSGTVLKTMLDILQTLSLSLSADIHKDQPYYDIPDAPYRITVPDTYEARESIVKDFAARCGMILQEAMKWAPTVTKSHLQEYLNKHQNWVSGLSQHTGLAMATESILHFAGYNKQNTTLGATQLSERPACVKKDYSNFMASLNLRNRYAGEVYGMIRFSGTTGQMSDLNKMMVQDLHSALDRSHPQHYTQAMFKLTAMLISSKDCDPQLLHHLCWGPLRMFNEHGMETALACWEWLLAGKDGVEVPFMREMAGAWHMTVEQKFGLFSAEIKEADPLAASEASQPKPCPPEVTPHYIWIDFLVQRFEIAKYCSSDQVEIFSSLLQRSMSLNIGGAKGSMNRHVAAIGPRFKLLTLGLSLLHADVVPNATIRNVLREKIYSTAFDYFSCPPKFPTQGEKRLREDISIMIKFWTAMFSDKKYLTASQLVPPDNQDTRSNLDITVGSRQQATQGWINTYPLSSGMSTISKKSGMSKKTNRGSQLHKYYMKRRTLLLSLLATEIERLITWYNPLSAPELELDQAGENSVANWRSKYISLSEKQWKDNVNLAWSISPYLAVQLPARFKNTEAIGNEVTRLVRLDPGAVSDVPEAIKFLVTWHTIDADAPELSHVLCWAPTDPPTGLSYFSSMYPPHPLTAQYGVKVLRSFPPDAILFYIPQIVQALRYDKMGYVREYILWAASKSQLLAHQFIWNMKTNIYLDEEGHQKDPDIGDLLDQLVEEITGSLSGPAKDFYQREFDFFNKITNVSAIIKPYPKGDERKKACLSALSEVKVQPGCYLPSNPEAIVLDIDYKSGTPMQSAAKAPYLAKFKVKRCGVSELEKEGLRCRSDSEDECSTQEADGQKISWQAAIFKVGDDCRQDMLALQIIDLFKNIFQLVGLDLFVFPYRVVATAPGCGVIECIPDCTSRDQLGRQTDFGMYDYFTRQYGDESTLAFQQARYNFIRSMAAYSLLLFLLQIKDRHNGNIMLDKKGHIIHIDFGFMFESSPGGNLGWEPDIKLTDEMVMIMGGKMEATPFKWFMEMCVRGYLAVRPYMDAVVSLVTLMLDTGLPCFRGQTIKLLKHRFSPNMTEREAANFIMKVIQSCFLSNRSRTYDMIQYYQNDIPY
UniProt P52209: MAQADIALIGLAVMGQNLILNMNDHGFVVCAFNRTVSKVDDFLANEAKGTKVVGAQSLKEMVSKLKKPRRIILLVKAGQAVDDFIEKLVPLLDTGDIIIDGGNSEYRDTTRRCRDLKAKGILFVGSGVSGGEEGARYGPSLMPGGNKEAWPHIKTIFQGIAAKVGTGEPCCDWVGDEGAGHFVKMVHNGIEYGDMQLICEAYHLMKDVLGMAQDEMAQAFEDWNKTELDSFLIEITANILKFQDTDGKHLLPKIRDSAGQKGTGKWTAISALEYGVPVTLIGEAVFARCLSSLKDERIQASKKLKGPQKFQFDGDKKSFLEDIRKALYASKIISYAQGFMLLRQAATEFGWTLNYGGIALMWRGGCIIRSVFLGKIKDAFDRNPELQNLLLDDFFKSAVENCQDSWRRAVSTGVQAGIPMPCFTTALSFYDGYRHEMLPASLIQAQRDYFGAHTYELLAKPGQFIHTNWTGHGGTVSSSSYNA
UniProt P00558: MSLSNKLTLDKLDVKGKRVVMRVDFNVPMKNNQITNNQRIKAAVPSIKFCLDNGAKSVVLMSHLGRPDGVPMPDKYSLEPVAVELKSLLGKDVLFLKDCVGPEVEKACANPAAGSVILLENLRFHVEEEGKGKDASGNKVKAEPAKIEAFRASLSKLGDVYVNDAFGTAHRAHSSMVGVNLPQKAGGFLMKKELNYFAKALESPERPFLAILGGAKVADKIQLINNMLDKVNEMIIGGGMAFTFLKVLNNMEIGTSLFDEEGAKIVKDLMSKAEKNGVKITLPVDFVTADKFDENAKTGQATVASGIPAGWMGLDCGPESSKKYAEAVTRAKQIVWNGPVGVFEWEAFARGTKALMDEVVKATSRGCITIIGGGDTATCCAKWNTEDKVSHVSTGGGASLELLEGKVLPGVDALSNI
UniProt Q96HS1, whole entry, looked up: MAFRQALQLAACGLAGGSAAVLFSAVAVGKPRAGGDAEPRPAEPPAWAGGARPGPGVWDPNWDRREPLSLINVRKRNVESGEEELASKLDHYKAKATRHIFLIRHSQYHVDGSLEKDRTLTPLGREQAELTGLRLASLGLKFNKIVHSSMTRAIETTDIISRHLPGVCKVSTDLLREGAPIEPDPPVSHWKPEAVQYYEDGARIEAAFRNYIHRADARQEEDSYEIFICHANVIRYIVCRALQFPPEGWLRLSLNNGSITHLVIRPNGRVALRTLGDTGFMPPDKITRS
UniProt P12955: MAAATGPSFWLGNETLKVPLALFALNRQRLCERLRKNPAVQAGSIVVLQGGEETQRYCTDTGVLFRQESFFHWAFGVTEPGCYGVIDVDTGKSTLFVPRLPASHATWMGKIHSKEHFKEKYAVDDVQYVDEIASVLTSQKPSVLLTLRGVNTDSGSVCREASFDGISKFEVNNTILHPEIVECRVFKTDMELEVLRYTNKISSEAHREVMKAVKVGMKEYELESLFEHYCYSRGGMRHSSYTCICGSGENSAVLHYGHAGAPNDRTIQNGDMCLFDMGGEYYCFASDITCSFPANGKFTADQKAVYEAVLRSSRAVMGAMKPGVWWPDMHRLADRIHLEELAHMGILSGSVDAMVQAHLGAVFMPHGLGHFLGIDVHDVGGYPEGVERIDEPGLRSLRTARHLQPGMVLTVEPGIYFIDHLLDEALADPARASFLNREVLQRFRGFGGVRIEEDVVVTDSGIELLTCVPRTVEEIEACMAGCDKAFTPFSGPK
UniProt O95336: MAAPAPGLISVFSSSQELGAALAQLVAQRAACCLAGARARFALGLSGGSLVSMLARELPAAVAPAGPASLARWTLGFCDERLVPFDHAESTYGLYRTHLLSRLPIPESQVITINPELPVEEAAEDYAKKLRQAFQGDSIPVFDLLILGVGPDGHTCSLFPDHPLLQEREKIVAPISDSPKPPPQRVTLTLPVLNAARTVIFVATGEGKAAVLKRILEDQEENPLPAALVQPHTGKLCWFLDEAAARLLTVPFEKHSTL
UniProt Q6ZUJ8: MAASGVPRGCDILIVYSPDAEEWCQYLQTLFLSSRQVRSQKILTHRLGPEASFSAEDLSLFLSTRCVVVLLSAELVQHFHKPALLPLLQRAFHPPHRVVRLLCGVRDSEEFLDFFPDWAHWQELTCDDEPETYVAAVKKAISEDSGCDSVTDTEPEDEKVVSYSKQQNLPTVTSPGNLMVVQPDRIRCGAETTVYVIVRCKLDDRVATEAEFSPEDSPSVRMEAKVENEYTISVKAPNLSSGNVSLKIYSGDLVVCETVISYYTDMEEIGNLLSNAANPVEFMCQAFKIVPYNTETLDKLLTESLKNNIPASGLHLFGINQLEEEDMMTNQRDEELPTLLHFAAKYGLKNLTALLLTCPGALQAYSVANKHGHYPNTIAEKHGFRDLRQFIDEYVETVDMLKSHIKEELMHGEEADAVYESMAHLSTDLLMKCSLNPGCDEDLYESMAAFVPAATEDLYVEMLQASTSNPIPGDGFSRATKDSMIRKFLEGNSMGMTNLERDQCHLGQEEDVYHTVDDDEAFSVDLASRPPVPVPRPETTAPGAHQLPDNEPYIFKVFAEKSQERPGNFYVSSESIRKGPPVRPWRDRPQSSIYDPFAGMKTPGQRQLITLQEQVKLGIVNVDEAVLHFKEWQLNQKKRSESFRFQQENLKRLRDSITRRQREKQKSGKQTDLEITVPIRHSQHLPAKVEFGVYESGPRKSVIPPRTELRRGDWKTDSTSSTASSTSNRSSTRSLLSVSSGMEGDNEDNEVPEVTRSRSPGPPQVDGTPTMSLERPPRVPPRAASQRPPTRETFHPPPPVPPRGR
UniProt Q9NXJ5: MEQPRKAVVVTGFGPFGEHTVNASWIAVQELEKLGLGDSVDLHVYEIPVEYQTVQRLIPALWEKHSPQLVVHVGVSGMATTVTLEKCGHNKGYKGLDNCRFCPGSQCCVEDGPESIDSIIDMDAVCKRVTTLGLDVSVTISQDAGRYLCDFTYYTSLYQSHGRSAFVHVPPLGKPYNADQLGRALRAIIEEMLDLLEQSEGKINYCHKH

Compound: CC1Cc2ccccc2N1C(=O)C1CCCN(C1)C(=O)CCl (mixture of isomers) [TRIM25 ligand 11 (diastereomer mixture)]
Experiment: probe-labelled cysteine peptide fold change vs DMSO (competition) (log2 fold change); higher = less target engagement (more negative = stronger competition)
Conditions: 10 µM; THP-1; incubation time: 4 h
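Note: competitive chemoproteomic profiling in live THP-1 cells with an iodoacetamide desthiobiotin (IA-DTB) probe, comparing probe-labelled peptide intensities in compound-treated cells against DMSO-treated controls.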

First: PGGT1B_P53609_147_EACLAGLR (UniProt P53609)
Second: PGAM1_P18669_153_YADLTEDQLPSCESLK (UniProt P18669)
The “probe-labelled cysteine peptide fold change” value of the first is higher: 0.00749 for the first, -0.0451 for the second.

First: PHAX_Q9H814_51_AFQNTATACAPVSHYR (UniProt Q9H814)
Second: PFKP_Q01813_123_GITNLCVIGGDGSLTGANLFR (UniProt Q01813)
The “probe-labelled cysteine peptide fold change” value of the first is higher: 0.0131 for the first, -0.0831 for the second.

First: PHYH_O14832_145_YVECFTGPNIMAMHTMLINKPPDSGKK (UniProt O14832)
Second: PDXP_Q96GD0_171_EACAHLRDPECLLVATDRDPWHPLSDGSR (UniProt Q96GD0)
The “probe-labelled cysteine peptide fold change” value of the first is lower: -0.148 for the first, -0.112 for the second.

Compared with “PHF2_O75151_869_NSVDLDDYEEEQDHLDACFK (UniProt O75151)”, “PELP1_Q8IZL8_645_VPPLQPMGPTCPTPAPVPPPEAPSPFR (UniProt Q8IZL8)” is lower in “probe-labelled cysteine peptide fold change” value: 0.259 for the first, 0.046 for the second.

Going from “PHYH_O14832_205_NNGCLVVLPGTHK (UniProt O14832)” to “PFKL_P17858_351_LPLMECVQMTK (UniProt P17858)”, the “probe-labelled cysteine peptide fold change” value falls from -0.0217 to -0.0342.

Compared with “PHF6_Q8IWS0_94_LMCSLCHCPGATIGCDVK (UniProt Q8IWS0)”, “PEAK3_Q6ZS72_107_SQAAVGPACLPAELTFGPADAPLGLSLR (UniProt Q6ZS72)” is lower in “probe-labelled cysteine peptide fold change” value: 0.0517 for the first, -0.178 for the second.

Going from “PHF10_Q8WUB8_134_ELNVITETQCTLGLTALR (UniProt Q8WUB8)” to “PHF14_O94880-2_607_LCYHFGCLDPPLK (UniProt O94880)”, the “probe-labelled cysteine peptide fold change” value rises from -0.0941 to -0.0279.

Going from “PI4KA_P42356_459_DEQGAENLCIK (UniProt P42356)” to “PHF6_Q8IWS0_107_TYHYHCALHDK (UniProt Q8IWS0)”, the “probe-labelled cysteine peptide fold change” value falls from 0.184 to -0.0754.

Compared with “PHF14_O94880_495_EGLLSEAAAEEDIADPFFAYCK (UniProt O94880)”, “PEX11B_O96011_25_AAQYACSLLGHALQR (UniProt O96011)” is higher in “probe-labelled cysteine peptide fold change” value: -0.217 for the first, 0.0645 for the second.

Going from “PGD_P52209_402_SAVENCQDSWRR (UniProt P52209)” to “PHF8_Q9UPP1-2_8_ASVPVYCLCR (UniProt Q9UPP1)”, the “probe-labelled cysteine peptide fold change” value rises from -0.258 to 0.173.

Compared with “PIBF1_Q8WXW3_199_EICELQVK (UniProt Q8WXW3)”, “PGK1_P00558_379_GCITIIGGGDTATCCAK (UniProt P00558)” is higher in “probe-labelled cysteine peptide fold change” value: -0.112 for the first, 0.0952 for the second.

Compared with “PGAM5_Q96HS1_229_QEEDSYEIFICHANVIR (UniProt Q96HS1)”, “PIAS1_O75925_192_CDFTVQVQLR (UniProt O75925)” is lower in “probe-labelled cysteine peptide fold change” value: 0.145 for the first, 0.115 for the second.

First: PHIP_Q8WWQ0_954_RCPFVPQMGDEVYYFR (UniProt Q8WWQ0)
Second: PEPD_P12955_467_IEEDVVVTDSGIELLTCVPR (UniProt P12955)
The “probe-labelled cysteine peptide fold change” value of the first is lower: -0.443 for the first, 0.432 for the second.

First: PEPD_P12955_482_TVEEIEACMAGCDK (UniProt P12955)
Second: PGGT1B_P53609_131_APGTAHPYDSGHIAMTYTGLSCLVILGDDLSR (UniProt P53609)
The “probe-labelled cysteine peptide fold change” value of the first is lower: 0.0938 for the first, 0.0949 for the second.

Compared with “PHF2_O75151_8_ATVPVYCVCR (UniProt O75151)”, “PHF6_Q8IWS0_305_TYHYHCGVQDK (UniProt Q8IWS0)” is lower in “probe-labelled cysteine peptide fold change” value: 0.0168 for the first, -0.0372 for the second.

Going from “PGLS_O95336_237_LCWFLDEAAAR (UniProt O95336)” to “PIK3AP1_Q6ZUJ8_147_AISEDSGCDSVTDTEPEDEK (UniProt Q6ZUJ8)”, the “probe-labelled cysteine peptide fold change” value rises from -0.0391 to 0.0823.

Compared with “PGPEP1_Q9NXJ5_99_GLDNCR (UniProt Q9NXJ5)”, “PHF3_Q92576_186_EEVCMSLKPEYHK (UniProt Q92576)” is lower in “probe-labelled cysteine peptide fold change” value: -0.0665 for the first, -0.0972 for the second.

Compared with “PGAM5_Q96HS1_12_QALQLAACGLAGGSAAVLFSAVAVGKPR (UniProt Q96HS1)”, “PHIP_Q8WWQ0_79_HLAPDHLLQICHR (UniProt Q8WWQ0)” is higher in “probe-labelled cysteine peptide fold change” value: -0.442 for the first, 0.0168 for the second.

For “PEPD_P12955_183_FEVNNTILHPEIVECR (UniProt P12955)”, the “probe-labelled cysteine peptide fold change” value was 0.18.

Same assay, conditions: 50 µM; THP-1; incubation time: 4 h

Compared with “PGGT1B_P53609_147_EACLAGLR (UniProt P53609)”, “PGAM1_P18669_153_YADLTEDQLPSCESLK (UniProt P18669)” is lower in “probe-labelled cysteine peptide fold change” value: 0.224 for the first, 0.0509 for the second.

Going from “PHAX_Q9H814_51_AFQNTATACAPVSHYR (UniProt Q9H814)” to “PFKP_Q01813_123_GITNLCVIGGDGSLTGANLFR (UniProt Q01813)”, the “probe-labelled cysteine peptide fold change” value rises from -0.208 to -0.144.

Going from “PHYH_O14832_145_YVECFTGPNIMAMHTMLINKPPDSGKK (UniProt O14832)” to “PDXP_Q96GD0_171_EACAHLRDPECLLVATDRDPWHPLSDGSR (UniProt Q96GD0)”, the “probe-labelled cysteine peptide fold change” value rises from -0.117 to -0.0102.

Going from “PHF2_O75151_869_NSVDLDDYEEEQDHLDACFK (UniProt O75151)” to “PELP1_Q8IZL8_645_VPPLQPMGPTCPTPAPVPPPEAPSPFR (UniProt Q8IZL8)”, the “probe-labelled cysteine peptide fold change” value falls from 0.295 to -0.386.

Compared with “PHYH_O14832_205_NNGCLVVLPGTHK (UniProt O14832)”, “PFKL_P17858_351_LPLMECVQMTK (UniProt P17858)” is lower in “probe-labelled cysteine peptide fold change” value: 0.22 for the first, -0.0606 for the second.

First: PHF6_Q8IWS0_94_LMCSLCHCPGATIGCDVK (UniProt Q8IWS0)
Second: PEAK3_Q6ZS72_107_SQAAVGPACLPAELTFGPADAPLGLSLR (UniProt Q6ZS72)
The “probe-labelled cysteine peptide fold change” value of the first is higher: -0.332 for the first, -0.357 for the second.

First: PHF10_Q8WUB8_134_ELNVITETQCTLGLTALR (UniProt Q8WUB8)
Second: PHF14_O94880-2_607_LCYHFGCLDPPLK (UniProt O94880)
The “probe-labelled cysteine peptide fold change” value of the first is higher: 0.0489 for the first, -0.0177 for the second.

Compared with “PI4KA_P42356_459_DEQGAENLCIK (UniProt P42356)”, “PHF6_Q8IWS0_107_TYHYHCALHDK (UniProt Q8IWS0)” is lower in “probe-labelled cysteine peptide fold change” value: -0.104 for the first, -0.167 for the second.

Going from “PHF14_O94880_495_EGLLSEAAAEEDIADPFFAYCK (UniProt O94880)” to “PEX11B_O96011_25_AAQYACSLLGHALQR (UniProt O96011)”, the “probe-labelled cysteine peptide fold change” value falls from 0.186 to 0.12.

Compared with “PGD_P52209_402_SAVENCQDSWRR (UniProt P52209)”, “PHF8_Q9UPP1-2_8_ASVPVYCLCR (UniProt Q9UPP1)” is higher in “probe-labelled cysteine peptide fold change” value: -0.19 for the first, 0.174 for the second.

First: PIBF1_Q8WXW3_199_EICELQVK (UniProt Q8WXW3)
Second: PGK1_P00558_379_GCITIIGGGDTATCCAK (UniProt P00558)
The “probe-labelled cysteine peptide fold change” value of the first is lower: -0.118 for the first, 0.168 for the second.

Going from “PGAM5_Q96HS1_229_QEEDSYEIFICHANVIR (UniProt Q96HS1)” to “PIAS1_O75925_192_CDFTVQVQLR (UniProt O75925)”, the “probe-labelled cysteine peptide fold change” value falls from 0.356 to 0.268.

First: PHIP_Q8WWQ0_954_RCPFVPQMGDEVYYFR (UniProt Q8WWQ0)
Second: PEPD_P12955_467_IEEDVVVTDSGIELLTCVPR (UniProt P12955)
The “probe-labelled cysteine peptide fold change” value of the first is lower: -0.346 for the first, -0.00394 for the second.

Compared with “PEPD_P12955_482_TVEEIEACMAGCDK (UniProt P12955)”, “PGGT1B_P53609_131_APGTAHPYDSGHIAMTYTGLSCLVILGDDLSR (UniProt P53609)” is higher in “probe-labelled cysteine peptide fold change” value: -0.233 for the first, -0.0606 for the second.

Going from “PHF2_O75151_8_ATVPVYCVCR (UniProt O75151)” to “PHF6_Q8IWS0_305_TYHYHCGVQDK (UniProt Q8IWS0)”, the “probe-labelled cysteine peptide fold change” value falls from 0.352 to 0.0401.

First: PGLS_O95336_237_LCWFLDEAAAR (UniProt O95336)
Second: PIK3AP1_Q6ZUJ8_147_AISEDSGCDSVTDTEPEDEK (UniProt Q6ZUJ8)
The “probe-labelled cysteine peptide fold change” value of the first is higher: -0.0594 for the first, -0.0712 for the second.

First: PGPEP1_Q9NXJ5_99_GLDNCR (UniProt Q9NXJ5)
Second: PHF3_Q92576_186_EEVCMSLKPEYHK (UniProt Q92576)
The “probe-labelled cysteine peptide fold change” value of the first is higher: 0.000305 for the first, -0.38 for the second.

First: PGAM5_Q96HS1_12_QALQLAACGLAGGSAAVLFSAVAVGKPR (UniProt Q96HS1)
Second: PHIP_Q8WWQ0_79_HLAPDHLLQICHR (UniProt Q8WWQ0)
The “probe-labelled cysteine peptide fold change” value of the first is lower: 0.0193 for the first, 0.116 for the second.

With “PEPD_P12955_183_FEVNNTILHPEIVECR (UniProt P12955)” the “probe-labelled cysteine peptide fold change” value was 0.0861.
